Reference: article PMC9849267
These are yes or no findings as the source states them, for the method shown. In cells and extracts the contact can be indirect. Some entries that bind do so weakly or less than the wild type. For some of these results: Sequences can lack the tags named with a protein.

Amino acid sequences for entries named in this document (tags omitted).
UniProt Q3TKT4: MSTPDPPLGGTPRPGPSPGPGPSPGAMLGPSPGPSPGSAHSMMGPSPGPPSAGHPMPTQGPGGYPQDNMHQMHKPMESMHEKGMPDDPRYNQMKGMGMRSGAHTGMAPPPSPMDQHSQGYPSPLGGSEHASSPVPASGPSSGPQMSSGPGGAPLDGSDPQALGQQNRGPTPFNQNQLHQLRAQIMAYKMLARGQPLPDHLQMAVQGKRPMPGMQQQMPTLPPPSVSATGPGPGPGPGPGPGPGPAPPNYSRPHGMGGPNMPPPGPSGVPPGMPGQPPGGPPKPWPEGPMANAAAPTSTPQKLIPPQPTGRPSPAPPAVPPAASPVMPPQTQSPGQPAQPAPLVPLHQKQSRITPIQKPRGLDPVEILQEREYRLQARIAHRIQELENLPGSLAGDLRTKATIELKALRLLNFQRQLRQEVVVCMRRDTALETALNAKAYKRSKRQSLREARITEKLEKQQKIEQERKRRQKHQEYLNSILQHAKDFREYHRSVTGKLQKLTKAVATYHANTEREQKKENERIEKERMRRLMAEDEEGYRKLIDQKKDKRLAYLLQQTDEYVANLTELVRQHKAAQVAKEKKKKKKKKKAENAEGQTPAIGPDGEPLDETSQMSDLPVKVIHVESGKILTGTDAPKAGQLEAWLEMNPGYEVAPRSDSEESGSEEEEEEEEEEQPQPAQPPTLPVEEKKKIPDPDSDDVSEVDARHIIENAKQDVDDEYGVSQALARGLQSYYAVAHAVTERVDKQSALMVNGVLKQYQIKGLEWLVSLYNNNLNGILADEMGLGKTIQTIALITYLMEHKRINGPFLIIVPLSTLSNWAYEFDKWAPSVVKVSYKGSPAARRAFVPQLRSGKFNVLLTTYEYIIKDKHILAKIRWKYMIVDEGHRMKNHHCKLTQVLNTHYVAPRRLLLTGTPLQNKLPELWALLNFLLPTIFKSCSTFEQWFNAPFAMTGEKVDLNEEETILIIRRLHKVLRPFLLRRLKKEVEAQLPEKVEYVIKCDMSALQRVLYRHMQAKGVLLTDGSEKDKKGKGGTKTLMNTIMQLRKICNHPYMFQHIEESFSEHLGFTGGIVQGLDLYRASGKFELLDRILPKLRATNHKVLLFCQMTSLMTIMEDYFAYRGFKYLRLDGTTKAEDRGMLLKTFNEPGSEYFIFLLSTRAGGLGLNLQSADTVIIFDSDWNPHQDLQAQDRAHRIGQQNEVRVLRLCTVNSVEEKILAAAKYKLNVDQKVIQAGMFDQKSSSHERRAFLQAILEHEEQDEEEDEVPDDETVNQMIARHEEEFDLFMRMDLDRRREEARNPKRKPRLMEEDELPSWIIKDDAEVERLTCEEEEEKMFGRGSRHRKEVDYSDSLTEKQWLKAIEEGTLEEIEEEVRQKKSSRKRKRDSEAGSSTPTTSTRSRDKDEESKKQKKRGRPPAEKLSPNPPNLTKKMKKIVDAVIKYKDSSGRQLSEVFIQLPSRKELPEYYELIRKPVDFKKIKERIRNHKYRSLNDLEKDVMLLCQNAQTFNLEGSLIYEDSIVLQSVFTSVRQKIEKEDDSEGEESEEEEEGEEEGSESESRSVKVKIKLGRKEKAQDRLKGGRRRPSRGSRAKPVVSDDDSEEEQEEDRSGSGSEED
UniProt Q6P9Z1: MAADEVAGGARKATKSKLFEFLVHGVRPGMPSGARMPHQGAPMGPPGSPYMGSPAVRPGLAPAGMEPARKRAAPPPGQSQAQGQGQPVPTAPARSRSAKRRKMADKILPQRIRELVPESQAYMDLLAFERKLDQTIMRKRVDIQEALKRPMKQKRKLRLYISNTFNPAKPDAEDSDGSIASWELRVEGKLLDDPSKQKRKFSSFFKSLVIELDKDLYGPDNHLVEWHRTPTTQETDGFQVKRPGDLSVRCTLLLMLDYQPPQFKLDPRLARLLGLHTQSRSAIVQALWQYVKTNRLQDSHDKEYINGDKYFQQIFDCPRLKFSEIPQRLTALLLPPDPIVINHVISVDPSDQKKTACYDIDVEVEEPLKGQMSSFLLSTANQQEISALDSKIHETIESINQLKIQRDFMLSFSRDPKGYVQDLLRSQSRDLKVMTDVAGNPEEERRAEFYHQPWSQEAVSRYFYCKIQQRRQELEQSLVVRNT
UniProt Q6STE5: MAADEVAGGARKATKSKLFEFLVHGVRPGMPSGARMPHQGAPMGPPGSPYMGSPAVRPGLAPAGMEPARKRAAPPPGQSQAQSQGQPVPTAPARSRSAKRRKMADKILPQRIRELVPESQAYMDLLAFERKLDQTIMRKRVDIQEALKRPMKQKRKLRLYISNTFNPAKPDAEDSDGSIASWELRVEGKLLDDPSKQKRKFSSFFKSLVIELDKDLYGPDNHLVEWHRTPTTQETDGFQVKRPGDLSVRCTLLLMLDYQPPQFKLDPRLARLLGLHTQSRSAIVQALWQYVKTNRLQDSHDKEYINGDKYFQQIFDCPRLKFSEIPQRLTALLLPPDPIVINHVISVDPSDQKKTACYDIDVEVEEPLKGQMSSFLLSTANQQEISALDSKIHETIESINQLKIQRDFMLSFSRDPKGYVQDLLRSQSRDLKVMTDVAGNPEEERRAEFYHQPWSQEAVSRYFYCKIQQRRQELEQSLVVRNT
UniProt P35582: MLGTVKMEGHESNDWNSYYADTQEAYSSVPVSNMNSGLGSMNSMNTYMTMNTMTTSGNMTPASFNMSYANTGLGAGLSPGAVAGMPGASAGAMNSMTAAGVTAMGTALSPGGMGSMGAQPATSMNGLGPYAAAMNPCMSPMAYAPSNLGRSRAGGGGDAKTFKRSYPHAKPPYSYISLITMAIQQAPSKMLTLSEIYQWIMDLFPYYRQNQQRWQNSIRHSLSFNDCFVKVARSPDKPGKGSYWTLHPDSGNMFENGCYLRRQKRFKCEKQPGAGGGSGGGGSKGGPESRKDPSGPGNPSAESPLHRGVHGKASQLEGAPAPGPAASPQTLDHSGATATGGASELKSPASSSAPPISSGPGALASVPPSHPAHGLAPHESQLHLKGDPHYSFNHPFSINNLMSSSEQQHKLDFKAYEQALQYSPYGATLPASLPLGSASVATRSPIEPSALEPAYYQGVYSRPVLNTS
UniProt P51532: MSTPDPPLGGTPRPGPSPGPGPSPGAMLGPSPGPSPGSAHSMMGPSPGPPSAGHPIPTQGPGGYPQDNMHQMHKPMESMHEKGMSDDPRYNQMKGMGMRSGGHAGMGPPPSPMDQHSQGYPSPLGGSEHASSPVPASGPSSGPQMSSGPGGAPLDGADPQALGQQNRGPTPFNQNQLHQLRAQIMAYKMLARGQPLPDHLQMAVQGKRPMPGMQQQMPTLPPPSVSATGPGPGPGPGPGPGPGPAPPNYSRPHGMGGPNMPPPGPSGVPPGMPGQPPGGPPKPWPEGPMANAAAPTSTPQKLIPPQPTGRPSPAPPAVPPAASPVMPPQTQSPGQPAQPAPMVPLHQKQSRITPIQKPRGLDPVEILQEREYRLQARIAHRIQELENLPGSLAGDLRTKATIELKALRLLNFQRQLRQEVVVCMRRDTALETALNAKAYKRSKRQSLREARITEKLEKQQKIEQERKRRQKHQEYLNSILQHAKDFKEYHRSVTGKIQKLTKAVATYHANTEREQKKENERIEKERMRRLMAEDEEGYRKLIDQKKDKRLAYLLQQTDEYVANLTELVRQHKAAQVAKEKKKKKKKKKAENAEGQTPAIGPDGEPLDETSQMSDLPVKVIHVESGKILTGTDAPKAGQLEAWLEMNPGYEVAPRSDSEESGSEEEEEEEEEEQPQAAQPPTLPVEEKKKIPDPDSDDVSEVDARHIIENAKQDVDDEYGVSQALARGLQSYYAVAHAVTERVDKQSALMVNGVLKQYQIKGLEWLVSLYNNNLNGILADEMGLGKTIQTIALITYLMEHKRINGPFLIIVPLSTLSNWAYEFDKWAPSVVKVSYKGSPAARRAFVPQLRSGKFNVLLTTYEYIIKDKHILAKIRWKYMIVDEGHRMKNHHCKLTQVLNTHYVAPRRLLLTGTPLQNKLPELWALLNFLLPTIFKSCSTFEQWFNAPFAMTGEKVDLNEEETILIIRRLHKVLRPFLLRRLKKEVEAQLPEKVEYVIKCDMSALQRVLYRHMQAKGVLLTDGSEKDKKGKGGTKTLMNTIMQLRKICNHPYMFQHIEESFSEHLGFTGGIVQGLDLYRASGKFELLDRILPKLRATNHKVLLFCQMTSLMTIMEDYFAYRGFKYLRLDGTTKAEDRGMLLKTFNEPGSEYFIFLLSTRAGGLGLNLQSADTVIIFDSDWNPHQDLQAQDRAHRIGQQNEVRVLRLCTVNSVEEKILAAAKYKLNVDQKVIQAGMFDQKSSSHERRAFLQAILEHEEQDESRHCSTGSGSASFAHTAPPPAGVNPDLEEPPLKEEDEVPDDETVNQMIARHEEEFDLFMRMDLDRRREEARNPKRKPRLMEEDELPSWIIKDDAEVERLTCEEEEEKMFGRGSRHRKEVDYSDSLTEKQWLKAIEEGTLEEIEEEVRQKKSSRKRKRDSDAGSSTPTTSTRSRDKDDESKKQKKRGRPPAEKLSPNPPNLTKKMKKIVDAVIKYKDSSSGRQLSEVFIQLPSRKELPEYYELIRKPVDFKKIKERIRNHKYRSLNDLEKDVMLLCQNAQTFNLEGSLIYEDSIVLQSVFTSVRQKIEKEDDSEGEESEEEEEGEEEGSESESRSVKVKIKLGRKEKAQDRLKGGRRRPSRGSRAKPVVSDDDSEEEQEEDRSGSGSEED

B1: FOXA1-V5 (protein, UniProt P55317 1-472)
chain: MLGTVKMEGHETSDWNSYYADTQEAYSSVPVSNMNSGLGSMNSMNTYMTMNTMTTSGNMTPASFNMSYANPGLGAGLSPGAVAGMPGGSAGAMNSMTAAGVTAMGTALSPSGMGAMGAQQAASMNGLGPYAAAMNPCMSPMAYAPSNLGRSRAGGGGDAKTFKRSYPHAKPPYSYISLITMAIQQAPSKMLTLSEIYQWIMDLFPYYRQNQQRWQNSIRHSLSFNDCFVKVARSPDKPGKGSYWTLHPDSGNMFENGCYLRRQKRFKCEKQPGAGGGGGSGSGGSGAKGGPESRKDPSGASNPSADSPLHRGVHGKTGQLEGAPAPGPAASPQTLDHSGATATGGASELKTPASSTAPPISSGPGALASVPASHPAHGLAPHESQLHLKGDPHYSFNHPFSINNLMSSSEQQHKLDFKAYEQALQYSPYGSTLPASLPLGSASVTTRSPIEPSALEPAYYQGVYSRPVLNTS

Legend:
[1] = target: SMARCA4 (mouse (endogenous in KP^f/fC tumors)) (UniProt Q3TKT4); test: proximity ligation; DuoLink PLA (rabbit MINUS and goat PLUS probes, amplification 2 hours) with antibodies against FOXA1, SMARCD3 and SMARCA4 on KP^f/fC mouse pancreatic tumor tissue; also on primary CD133+ KP^f/fC tumor cells
[2] = target: SMARCD3 (mouse (endogenous in KP^f/fC tumors and cell lines)) (UniProt Q6P9Z1); test: as above
[3] = target: SMARCD3-FLAG (UniProt Q6STE5); test: co-IP; 293T cells with lentiviral FOXA1-V5 and transfected SMARCD3-FLAG or empty GFP vector; 500 ug nuclear lysate on FLAG magnetic beads overnight at 4 C in high stringency buffer, eluted with FLAG peptide; blots with anti-FLAG, anti-V5, anti-SMARCA4

binding [1]	binding [2]	binding [3]	Molecule
binds	binds	–	FOXA1 (from UniProt P35582 1-468)
–	–	binds	SMARCA4 (from UniProt P51532 1-1647)
–	–	binds	B1
